# Results: paper PMC12670160, “A drug-repurposing screen of FDA- and EMA-approved drugs identifies two NF-κB inhibitors active against eumycetoma” (Journal of Antimicrobial Chemotherapy, 2025)
# Structures can show the parent of a compound that is named as a salt. In all, about 5,300 compounds went through this assay and about 130 (2.5%) showed an effect of 50% or more. This is one part of the list. Peptide text beside a SMILES is read from it.
# Test system: M. mycetomatis strain mm55
# Conditions: primary screen, metabolic activity vs growth control; 96 h, 2 µM; inhibitor
row,Structure (SMILES),% viability
1,"N#Cc1cc(CN2CCC(Nc3ncnc4sc(Cl)cc34)CC2)ccc1F [ONC0004391, prx08066 maleic acid]",100.9%
2,"COc1cc(/C=C2\CCCN([C@@H](C)c3ccc(F)cc3)C2=O)ccc1-n1cnc(C)c1 [ONC0001004, e 2012]",90.83%
3,"[H]/N=C(/N)c1ccc(NCc2nc3cc(C(=O)N(CCC(=O)O)c4ccccn4)ccc3n2C)cc1 [ONC0004940, bibr 953 dabigatran etexilate pradaxa]",81.22%
4,"Cc1c(NC(=O)c2cc3c(s2)CCCC3)cccc1-c1cn(C)c(=O)c(Nc2ccc(C3C(=O)N(C)CCN3C)cc2)n1 (racemic) [ONC0000819, gdc0834 racemate]",65.58%
5,"CCNCc1cc(C(C)(C)C)c(O)c(C(C)(C)C)c1 [ONC0003666, ly231617]",62.77%
6,"Cc1ncc([N+](=O)[O-])n1CC(C)O (stereo not shown) [ONC0004221, secnidazole]",99.82%
7,"C/C=C(/C(=C/C)c1ccc(O)cc1)c1ccc(O)cc1 [ONC0002147, dienestrol]",52.11%
8,"CC1=C(/C=C/C(C)=C/C=C/C(C)=C/CO)C(C)(C)CCC1 [ONC0000539, retinol]",128.1%
9,"OCCn1cc(-c2cnc3nnn(Cc4ccc5ncccc5c4)c3n2)cn1 [ONC0004674, pf04217903]",83.7%
10,"C[C@H](O[C@H]1OCCN(Cc2n[nH]c(=O)[nH]2)[C@H]1c1ccc(F)cc1)c1cc(C(F)(F)F)cc(C(F)(F)F)c1 [ONC0004612, aprepitant mk0869]",34.22%
11,"CCCCn1c(=O)c2[nH]c(C34CC5CC(CC3C5)C4)nc2n(CCCO)c1=O [ONC0000224, psb36]",53.31%
12,"CC(C)C[C@H](NC(=O)N1CCCCCC1)C(=O)N[C@H](Cc1cn(C)c2ccccc12)C(=O)N[C@H](Cc1ccccn1)C(=O)O [ONC0001557, fr139317]",113.9%
13,"O=C(O)c1ccc2nc(-c3cc(Cl)cc(Cl)c3)oc2c1 [ONC0001780, tafamidis]",89.74%
14,"C=C[C@H]1CN2CC[C@H]1C[C@H]2[C@H](O)c1ccnc2ccccc12 [ONC0003192, cinchonidine]",97.82%
15,"Cc1ccc(-n2nc(C(C)(C)C)cc2NC(=O)NCc2cc(F)ccc2Oc2ccc3c(cnn3CCO)c2)cc1 [ONC0004396, pexmetinib arry614]",98.41%
16,"O=C(O)c1ccc2cc(-c3ccc(O)c(C45CC6CC(CC(C6)C4)C5)c3)ccc2c1 [ONC0003137, cd437]",104.9%
17,"O=C(NC[C@H](O)CO)c1ccncc1Nc1ccc(I)cc1F [ONC0004877, pimasertib as703026]",86.19%
18,"CCCCCCCC(=O)OCC(O)CO (stereo not shown) [ONC0005530, monoctanoin]",84.93%
19,"Cc1ccc(-c2ncc[nH]2)cc1NC(=O)c1ccc(OCc2ccccn2)cc1 [ONC0000045, az12080282]",85.65%
20,"C[C@@H]([C@@H](O)c1ccc(O)cc1)N1CCC(O)(c2ccccc2)CC1 [ONC0002879, cp 101606]",121.9%
21,"O=C(Nc1ccc(S(=O)(=O)Nc2ccccc2Cl)c(Cl)c1)c1ccccn1 [ONC0004481, vu 0364439]",151%

row,Structure (SMILES),% viability
1,"Cc1ccc(C(=O)Nc2ccc(CN3CCN(C)CC3)c(C(F)(F)F)c2)cc1C#Cc1cnc2[nH]ncc2c1 [ONC0004398, gzd824 dimesylate]",83.54%
2,"Cc1ccccc1C(C(=O)NC1CCCCC1)N(C(=O)Cn1ccnc1C)c1cccc(F)c1 (stereo not shown) [ONC0005188, agi5198]",113.7%
3,"CC(=O)NCCCCCC(=O)O [ONC0003771, acexamicacid]",124.6%
4,"Oc1ccnc2cc(Cl)ccc12 [ONC0002982, chloroxoquinoline]",96.22%
5,"O=c1n(CCCN2CCN(c3cccc(Cl)c3)CC2)nc2ccccn12 [ONC0003101, trazodone hydrochloride]",79.17%
6,"O=C(O)c1cc(=O)[nH]c(=O)[nH]1 [ONC0003933, orotic acid]",67.23%
7,"Cc1onc(O)c1CC(N)C(=O)O (stereo not shown) [ONC0001795, ampars]",136.1%
8,"CN1[C@@H]2CC[C@H]1C[C@@H](OC(=O)N1Cc3ccccc3NC1=O)C2 [ONC0001606, dau5884]",89.33%
9,"CCOc1cc(C(=O)Nc2ccc(Cl)c(-c3nc4ccccc4[nH]3)c2)cc(OCC)c1OCC [ONC0001541, sant2]",100.1%
10,"CO[C@H]1C([C@@]2(C)O[C@@H]2CC=C(C)C)[C@]2(CC[C@H]1OC(=O)NC(=O)CCl)CO2 (stereo partly shown) [ONC0005524, tnp470]",75.23%
11,"CN(C)C(=O)n1nnnc1Cc1ccc(-c2ccccc2)cc1 [ONC0003593, ly2183240]",124.1%
12,"CC1(C)S[C@@H]2[C@H](NC(=O)[C@H](N)c3ccccc3)C(=O)N2[C@H]1C(=O)O [ONC0004272, ampicillin sodium]",71.12%
13,"CCCCC[C@H](O)/C=C/[C@H]1[C@H](O)CC(=O)[C@@H]1C/C=C\CCCC(=O)O [ONC0001297, dinoprostone]",104.7%
14,"O=C1[C@@H]2[C@H]3CC[C@H](C3)[C@@H]2C(=O)N1C[C@@H]1CCCC[C@H]1CN1CCN(c2nsc3ccccc23)CC1 [ONC0004569, lurasidone hcl]",68.59%
15,"CN(CCOP(=O)(O)O)C(=N)N [ONC0002764, 12hydroxyethyl1methylguanidine dihydrogen phosphate]",107.5%
16,"Cc1nc2ccccn2c(=O)c1CCN1CCC(C(=O)c2ccc(F)cc2)CC1 [ONC0002968, pirenperone]",106.9%
17,"CSc1nc2cc(Cl)c(Oc3cccc(Cl)c3Cl)cc2[nH]1 [ONC0005286, triclabendazole]",152%
18,"Cc1ccc(=O)n(-c2ccc(O)cc2)c1 [ONC0004757, f351]",123%
19,N#C/C(=C1/SCC(c2ccccc2Cl)S1)n1ccnc1 (stereo not shown) [Lanoconazole],3.92%
20,"Nc1ccc(-c2ccc3ncc4ccc(=O)n(-c5cccc(C(F)(F)F)c5)c4c3c2)cn1 [ONC0003069, torin2]",68.61%
21,"Fc1ccccc1CNCc1ccc(-c2ccnc3[nH]ccc23)cc1 [ONC0003624, oxa06]",62.01%

# 2 consecutive compounds already listed, quoted:
row,Structure (SMILES),% viability
9,"CCOc1cc(C(=O)Nc2ccc(Cl)c(-c3nc4ccccc4[nH]3)c2)cc(OCC)c1OCC [ONC0001541, sant2]",100.1%
10,"CO[C@H]1C([C@@]2(C)O[C@@H]2CC=C(C)C)[C@]2(CC[C@H]1OC(=O)NC(=O)CCl)CO2 (stereo partly shown) [ONC0005524, tnp470]",75.23%

# Following part:

row,Structure (SMILES),% viability
1,"Cc1cnc(-c2ccccc2C(C)C)nc1NCc1ccc(-n2ccnn2)cc1 [ONC0001096, ml323]",85.22%
2,"O=C(CCNNC(=O)c1ccncc1)NCc1ccccc1 [ONC0005392, nialamide]",93.5%
3,"CC(C)(C)CC(C)(C)c1cc(Cc2cc(C(C)(C)CC(C)(C)C)cc(-n3nc4ccccc4n3)c2O)c(O)c(-n2nc3ccccc3n2)c1 [ONC0003873, bisoctrizole]",77.29%
4,"FC(F)(F)c1cc(NC(=S)Nc2ccc(Br)cc2-c2nnn[nH]2)cc(C(F)(F)F)c1 [ONC0000117, ns11021]",92.01%
5,"NC(=O)c1cnccn1 [ONC0003400, pyrazinamide]",98.18%
6,"CO[C@@H]1[C@H](OC(=O)/C=C/C=C/C=C/C=C/C(=O)O)CC[C@]2(CO2)[C@H]1[C@@]1(C)O[C@@H]1CC=C(C)C [ONC0005501, fumagillin]",131.3%
7,"CC[C@H](CC#N)OC(=O)N[C@@H](C)c1cccc(NC(=O)Nc2ccc(-c3cnco3)c(OC)c2)c1 [ONC0000952, avn944]",63.71%
8,"C#Cc1cccc(Nc2ncnc3cc(OCCOC)c(OCCO)cc23)c1 [ONC0004975, osi420 desmethyl erlotinib]",96.97%
9,"Cn1cnc2c(F)c(Nc3ccc(Br)cc3F)c(C(=O)NOCCO)cc21 [ONC0004543, binimetinib mek162 arry162 arry438162]",60.57%
10,"COC(=O)/C=C/C(=O)OCCN1C(=O)CCC1=O [ONC0002732, 225dioxopyrrolidin1ylethyl methyl fumarate]",105.7%
11,"C[C@@H](O)[C@H](N)C(=O)N1CCC[C@H]1C(=O)N1CCC[C@H]1C(=O)N[C@H](C(N)=O)[C@@H](C)O [ONC0002215, rapastinel trifluoroacetate] (H-TPPT-NH2)",53.54%
12,"Cn1ncc2c(N3CCOCC3)nc(-c3cccc(O)c3)nc21 [ONC0000011, etp45658]",67.7%
13,"COc1c(-c2ccc3cc(NS(C)(=O)=O)ccc3c2)cc(-n2ccc(=O)[nH]c2=O)cc1C(C)(C)C [ONC0001775, dasabuvir]",79.59%
14,"NC(=O)c1cccc(-c2cccc(OC(=O)NC3CCCCC3)c2)c1 [ONC0005267, urb597]",122.4%
15,"CN(C(=O)Cc1ccc(Cl)c(Cl)c1)[C@H](CN1CCCC1)c1ccccc1 [ONC0003103, ici199441]",75.24%
16,"COC[C@H]1OC(=O)c2coc3c2[C@@]1(C)C1=C(C3=O)[C@@H]2CCC(=O)[C@@]2(C)C[C@H]1OC(C)=O [ONC0004466, wortmannin]",136.8%
17,"Cc1[nH]c(=O)c(C#N)cc1-c1ccc2nccn2c1 [ONC0001186, olprinone hydrochloride]",91.75%
18,"NCCCCCc1c[nH]cn1 [ONC0000200, impentamine]",65.77%
19,"CC(=O)O[C@H]1C(=O)[C@@]2(C)[C@H]([C@H](OC(=O)c3ccccc3)[C@]3(O)C[C@H](OC(=O)[C@H](O)[C@@H](NC(=O)c4ccccc4)c4ccccc4)C(C)=C1C3(C)C)[C@]1(OC(C)=O)CO[C@@H]1C[C@@H]2O [ONC0000820, paclitaxel]",69.97%
